Earlier results in US6093702A, “Mixtures of dideoxy-nucleosides and hydroxycarbamide for inhibiting retroviral spread” (The United States of America as represented by the …, priority 1995, dated 2000).
The name of at least one read-out is uncertain.

Details: Yarchoan et al, New Engl. J. Med. 321 726-738 (1989); read-out: plasma concentration achievable under treatment conditions; cited from earlier work

Cc1cn([C@H]2C[C@H](N=[N+]=[N-])[C@@H](CO)O2)c(=O)[nH]c1=O [AZT, 3'-azido-2',3'-dideoxythymidine]
Cmax: 4 µM
